From PubChem BioAssay AID540256 (National Center for Advancing Translational Sciences (NCATS), 2011)
Hit rate of the full screen: of about 300,000 compounds, about 3,700 (1.2%) were called active. This list was built around the results that the source calls inconclusive (neither active nor inactive); the mix of calls is not that of the screen. The call rests on the fitted dose curve; tested in HEK293 cells. Potencies of inconclusive entries are doubtful fits and often do not repeat.

Assay: qHTS for Inhibitors of binding or entry into cells for Lassa Virus; further: nearly all actives have a fitted effect of over 50% in size
Conditions: Lassa virus pseudotype entry inhibition, cell reporter; series mostly up to 37.9 µM
Potency means the concentration at half of the fitted maximal effect.

| Structure (SMILES) | Potency |
| --- | --- |
| COC(=O)CS(=O)(=O)c1nnc([C@H](Cc2ccccc2)NC(=O)OC(C)(C)C)o1 | inconclusive: 14.1 µM [inhibitor, single point] |
| CCN(C(=O)c1cc2c(=O)[nH]c3ccc(C)cc3c2s1)c1cccc(C)c1 | inconclusive: 35.5 µM [inhibitor, single point] |
| CCN(c1ccccc1)c1ncnc2c1cnn2-c1ccc(C)cc1C | inconclusive: 35.5 µM [inhibitor, single point] |
| CCc1cccc(NC(=O)CSCc2cc(=O)[nH][nH]2)c1 | inconclusive: 7.3 µM [inhibitor, single point] |
| CC(C)C(=O)Nc1ccc(N2CCN(c3ccc(F)cc3)CC2)cc1 | inactive |
| O=C(O)Cc1ccc(N=Cc2c(O)ccc3ccccc23)cc1 | inactive |
| COC(=O)c1c(Oc2ccc(C(C)=O)cc2)nnc(-c2ccccc2)c1-c1ccccc1 | inconclusive: 10 µM [inhibitor, partial curve, poor fit] |
| CCCc1c(C)c2ccc(O)c(CN3CCN(c4ccc(F)cc4)CC3)c2oc1=O | inactive |
| O=C(NCc1ccc(F)cc1)c1cc(-c2ccco2)on1 | inconclusive: 13 µM [activator, single point] |
| CCOC(=O)C1=C(O)c2ccccc2C(=O)/C1=C\c1ccc(CC)cc1 | inconclusive: 16.4 µM [inhibitor, partial curve] |
| O=C(NN=Cc1ccccc1)C(Oc1ccccc1)c1ccccc1 (configuration not stated) | inconclusive: 22.4 µM [inhibitor, single point] |
| CC(=O)c1ccc(-c2cccs2)s1 | inactive |
| CNC(=S)NNc1ccccc1[N+](=O)[O-] | inconclusive: 35.5 µM [inhibitor, single point] |
| CCOc1cccc(CNc2ccc(O)cc2)c1OCc1ccc(Cl)cc1Cl | inconclusive: 35.5 µM [inhibitor, single point] |
| CCC(=O)Oc1ccc(C(=O)Nc2cccc(C(=O)c3ccccc3)c2)cc1 | inconclusive: 35.5 µM [inhibitor, single point] |
| Cc1nc2sc3c(NCc4ccco4)ncnc3c2c2c1COC(C)(C)C2 | inactive |
| Cc1ccc(Oc2ccc(NC(=O)CSc3n[nH]c(N)n3)cc2)cc1 | inconclusive: 0.92 µM [inhibitor, full curve, poor fit] |
| CCNCc1nc2cc(Cl)ccc2c(=O)[nH]1 | inactive |
| Cc1cccc2sc(NC(=O)CN(C)S(=O)(=O)c3ccc(Br)s3)nc12 | inconclusive: 35.5 µM [inhibitor, single point] |
| Cc1cc(C(F)F)n2ncc(C(=O)NCc3ccccc3C(F)(F)F)c2n1 | inconclusive: 10 µM [inhibitor, partial curve, poor fit] |
| CCOc1ccc(NC(=O)CC2C(=O)OCCN2CC)cc1 (configuration not stated) | inactive |
| COc1ccc(OC)c(-n2cnc3cc(C(=O)NC4CCCCCC4)ccc32)c1 | inactive |
| CN(C)c1ccc(/C=C2\SC(=O)N(CC(O)Cn3c4ccccc4c4ccccc43)C2=O)cc1 (configuration not stated) | inactive |
| COc1ccc(NC(=O)Cn2nnc(-c3ccccc3NS(=O)(=O)c3ccccc3)n2)cc1 | inconclusive: 9.2 µM [inhibitor, partial curve, poor fit] |

| Structure (SMILES) | Potency |
| --- | --- |
| COC1=CC(=O)C(OC)=C(OC)C1=O | active: 15.8 µM |
| Cc1cc(C)c(-c2cc(NC(=O)COC(=O)c3ccc(NC(=O)CC#N)cc3)n(-c3ccccc3)n2)cc1C | inactive |
| CCc1ccccc1N1C(=O)N(Cc2ccccc2C)c2ccccc2S1(=O)=O | inconclusive: 17.8 µM [inhibitor, single point] |
| COc1ccc(S(=O)(=O)n2ccnc2)cc1C(C)(C)C | inactive |
| O=C(O)C1C2CCC(C2)C1C(=O)Nc1ccccc1 (configuration not stated) | inconclusive: 4.47 µM [activator, partial curve, poor fit] |
| CCOC(=O)C1CCN(C(=O)C2CCN(c3nc4ccc(OC)cc4s3)CC2)CC1 | inconclusive: 29.1 µM [inhibitor, single point] |
| C=CCn1c(SCC(=O)c2ccc(OC)cc2)nnc1-c1cc2cccc(OC)c2o1 | inactive |
| CCOC(=O)c1cccc(Nc2c3c(nc4ccccc24)CCC3)c1 | inconclusive: 10 µM [inhibitor, partial curve] |
| Cc1cccc(NC(=O)c2c(NC(=O)C(F)(F)F)sc3c2CCCCC3)c1 | inconclusive: 6.31 µM [inhibitor, full curve] |
| O=C1CC(c2ccccc2)Cc2[nH]c(=O)c(C(=O)Nc3cccc(F)c3)cc21 (configuration not stated) | inconclusive: 35.5 µM [inhibitor, partial curve, poor fit] |
| O=C(NCCS(=O)(=O)N1CCN(c2ccccc2)CC1)C(c1ccccc1)c1ccccc1 | inconclusive: 3.16 µM [inhibitor, single point] |
| Cc1ccc(C(=O)C(NC(=O)c2ccco2)N2CCOCC2)cc1 (configuration not stated) | inactive |
| COCC1CCN(C(=O)CCc2nnc(CCCCc3ccccc3)o2)CC1 | inconclusive: 4.47 µM [inhibitor, partial curve, poor fit] |
| CCc1ccc(CNCc2c(C(=O)O)n(Cc3cccc(F)c3)c3cc(OC)ccc23)cc1 | inconclusive: 12.6 µM [inhibitor, single point] |
| N#C/C(=C\c1ccccc1)c1nc(-c2cc3cc(Br)ccc3oc2=O)cs1 | inactive |
| COc1ccc(/C=N/n2c(-c3ccco3)nc3ccccc3c2=O)cc1 | inactive |
| Cc1ccc(CNC(=O)COC(=O)c2cnccn2)cc1 | inconclusive: 29.1 µM [activator, single point] |
| COc1ccc(OCc2cc(C(=O)NC(C)c3cnn(C)c3)no2)c(Cl)c1 (configuration not stated) | inconclusive: 11.2 µM [activator, partial curve, poor fit] |
| O=C(Nc1ccc(N2CCCC2=O)cc1)c1cccc(F)c1 | inactive |
| N#Cc1nc(COc2ccccc2F)oc1NCCc1ccccc1 | inactive |
| O=C(Nc1cccc(Cl)c1Cl)c1ccncc1 | inactive |
| O=C(Nc1ccc(Cl)c(Cl)c1)Nc1nc(-c2ccccc2)cs1 | inconclusive: 0.82 µM [inhibitor, partial curve, poor fit] |
| Cc1ccc(N2C(=O)C(Cl)=C(N3CCN(C)CC3)C2=O)c(C)c1 | inactive |
| O=C(Nc1ccc2c(c1)OCO2)c1cc(-c2ccccc2Cl)on1 | inconclusive: 2.82 µM [inhibitor, full curve, poor fit] |

20 neighbouring records from above:

| Structure (SMILES) | Potency |
| --- | --- |
| COc1ccc(S(=O)(=O)n2ccnc2)cc1C(C)(C)C | inactive |
| O=C(O)C1C2CCC(C2)C1C(=O)Nc1ccccc1 (configuration not stated) | inconclusive: 4.47 µM [activator, partial curve, poor fit] |
| CCOC(=O)C1CCN(C(=O)C2CCN(c3nc4ccc(OC)cc4s3)CC2)CC1 | inconclusive: 29.1 µM [inhibitor, single point] |
| C=CCn1c(SCC(=O)c2ccc(OC)cc2)nnc1-c1cc2cccc(OC)c2o1 | inactive |
| CCOC(=O)c1cccc(Nc2c3c(nc4ccccc24)CCC3)c1 | inconclusive: 10 µM [inhibitor, partial curve] |
| Cc1cccc(NC(=O)c2c(NC(=O)C(F)(F)F)sc3c2CCCCC3)c1 | inconclusive: 6.31 µM [inhibitor, full curve] |
| O=C1CC(c2ccccc2)Cc2[nH]c(=O)c(C(=O)Nc3cccc(F)c3)cc21 (configuration not stated) | inconclusive: 35.5 µM [inhibitor, partial curve, poor fit] |
| O=C(NCCS(=O)(=O)N1CCN(c2ccccc2)CC1)C(c1ccccc1)c1ccccc1 | inconclusive: 3.16 µM [inhibitor, single point] |
| Cc1ccc(C(=O)C(NC(=O)c2ccco2)N2CCOCC2)cc1 (configuration not stated) | inactive |
| COCC1CCN(C(=O)CCc2nnc(CCCCc3ccccc3)o2)CC1 | inconclusive: 4.47 µM [inhibitor, partial curve, poor fit] |
| CCc1ccc(CNCc2c(C(=O)O)n(Cc3cccc(F)c3)c3cc(OC)ccc23)cc1 | inconclusive: 12.6 µM [inhibitor, single point] |
| N#C/C(=C\c1ccccc1)c1nc(-c2cc3cc(Br)ccc3oc2=O)cs1 | inactive |
| COc1ccc(/C=N/n2c(-c3ccco3)nc3ccccc3c2=O)cc1 | inactive |
| Cc1ccc(CNC(=O)COC(=O)c2cnccn2)cc1 | inconclusive: 29.1 µM [activator, single point] |
| COc1ccc(OCc2cc(C(=O)NC(C)c3cnn(C)c3)no2)c(Cl)c1 (configuration not stated) | inconclusive: 11.2 µM [activator, partial curve, poor fit] |
| O=C(Nc1ccc(N2CCCC2=O)cc1)c1cccc(F)c1 | inactive |
| N#Cc1nc(COc2ccccc2F)oc1NCCc1ccccc1 | inactive |
| O=C(Nc1cccc(Cl)c1Cl)c1ccncc1 | inactive |
| O=C(Nc1ccc(Cl)c(Cl)c1)Nc1nc(-c2ccccc2)cs1 | inconclusive: 0.82 µM [inhibitor, partial curve, poor fit] |
| Cc1ccc(N2C(=O)C(Cl)=C(N3CCN(C)CC3)C2=O)c(C)c1 | inactive |

More compounds:

| Structure (SMILES) | Potency |
| --- | --- |
| Cc1cc(NO)nc(-c2ccc(Br)cc2)n1 | inconclusive: 0.82 µM [activator, partial curve] |
| Cc1ccc(N2CC(c3nc4ccccc4n3CCC3CCCCC3)CC2=O)cc1 (configuration not stated) | inconclusive: 6.31 µM [activator, full curve] |
| O=C(O)COCC(=O)Nc1ccccc1-c1ccccc1 | inactive |
| CCS(=O)(=O)Nc1ccc(-c2nnc(SCC(=O)c3ccc(NC(C)=O)c(OC)c3)o2)cc1 | inconclusive: 17.8 µM [activator, partial curve, poor fit] |
| Cc1ccc(C(=O)CSc2nnc(-c3cccnc3)n2N)cc1 | inconclusive: 1.46 µM [inhibitor, full curve] |
| O=C(CCc1nc(-c2ccccc2F)no1)Nc1ccc(Oc2ccccc2)cc1 | inconclusive: 12.6 µM [inhibitor, partial curve, poor fit] |
| C/C(=N\NC(=O)c1ccc(Br)o1)c1cc2c(cc1NC(=O)CCC(=O)O)OCO2 | inconclusive: 0.316 µM [inhibitor, partial curve, poor fit] |
| Cc1cc(NC(=O)c2ccc3c(c2)OCO3)ccc1NC(=O)c1ccco1 | inactive |
| COc1ccc(Cl)cc1NC(=O)NC(C)c1ccncc1 (configuration not stated) | inactive |
| O=C(Cc1noc2ccccc12)Nc1ccc2ccccc2c1 | inactive |
| CC(=O)c1ccc(OCc2cc(C(=O)N(C)Cc3nc4c(C)cccc4[nH]3)no2)cc1 | inactive |
| CCc1cc2cc(C)cc(C)c2nc1SCC(=O)Nc1cc(C)on1 | inconclusive: 35.5 µM [inhibitor, single point] |
| CCC(C)NC(=O)Cn1c(=O)cc(-c2ccccc2)c2c(C)nn(C)c21 (configuration not stated) | inconclusive: 5.62 µM [inhibitor, full curve, poor fit] |
| Cc1ccc(C(=O)NCCN(C)C)c(C)c1 | inconclusive: 31.6 µM [activator, single point] |
| CCC(=O)N(Cc1cc2ccccc2[nH]c1=O)c1ccccc1OC | inconclusive: 0.126 µM [inhibitor, full curve, poor fit] |
| O=C(NC(=S)Nc1ccccc1Br)c1ccco1 | inactive |
| Cc1nn(Cc2ccccc2Cl)c(C)c1NC(=O)NC12CC3CC(CC(C3)C1)C2 | inconclusive: 10.3 µM [inhibitor, partial curve, poor fit] |
| O=C(C1CCCCC1)N1C[C@H](O)[C@H](n2cc(C3CC3)nn2)C[C@@H]1c1ccccc1 | inconclusive: 3.15 µM [activator, full curve] |
| CCc1c(C)sc2nc3c(C(=O)N4CCOCC4)cc(C(=O)c4ccccc4O)cn3c(=O)c12 | inconclusive: 10 µM [inhibitor, partial curve, poor fit] |
| Cc1ccc2[nH]c(O)c(N=Nc3ccccc3C)c2c1 | inactive |
| CCC(C)/C(C)=N/NC(=O)c1ccc(COc2ccc(Cl)c(C)c2)cc1 (configuration not stated) | inactive |
| CCOC(=O)c1c(CN2CCC(C)CC2)oc2ccc(OC)cc12 | inconclusive: 25.9 µM [inhibitor, partial curve, poor fit] |
| Cc1ccc(/C=C2\CC(C)CC3=C2NC(=S)NC3c2ccc(C)cc2)cc1 (configuration not stated) | inactive |
| CCOC(=O)c1oc2c(c1C)-c1nn(Cc3ccc(Cl)cc3)cc1CC2 | inactive |
